PubChem BioAssay AID504444 (National Center for Advancing Translational Sciences (NCATS), 2011)
Hit rate of the full screen: of about 360,000 compounds, about 7,500 (2.1%) were called active. This list was built around the results that the source calls inconclusive (neither active nor inactive); the mix of calls is not that of the screen. Calls follow the shape of the dose curve; as a rule, active = well fitted inhibition curve with a large enough effect; inconclusive = small, poorly fitted or top-dose-only effect, or effect the other way; inactive = flat fitted curve, though single readings scatter. Potencies of inconclusive entries are doubtful fits and often do not repeat.

Experiment: Nrf2 qHTS screen for inhibitors; also: nearly all actives have a fitted effect of over 60% in size
Conditions: A549 ARE-Fluc reporter, luciferase luminescence, 18-24 h; activity change, negative = inhibition: at 46 µM (top of the series)
In short: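 Concentration-response testing used A549 ARE_Fluc cells at 5000 cells/well. Following an 18-24 h compound incubation, viability was read by fluorescence (Ex 405/Em 525) and luciferase output by luminescence.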
% is scaled to controls: 0 for no effect and ±100 for the full control effect; potency is read from the fitted curve at half-maximal effect.

SMILES	Potency	activity change, negative = inhibition
O=C(NC1CCCC1)c1c(O)nc2sccn2c1=O	inconclusive: 20.6 µM [falling, partial curve, poor fit]	
COc1ccc(NC(=O)c2cc3ccccc3cc2OC)cc1	inconclusive: 6.51 µM [activator, full curve]	
Clc1ccc(-c2csc(=Nc3cccnc3)n2CCCn2ccnc2)cc1Cl	inconclusive: 25.9 µM [falling, partial curve, poor fit]	
COc1ccnc(N2CCN(c3cccc(C(F)(F)F)c3)CC2)c1C#N	inconclusive: 0.517 µM [falling, full curve, poor fit]	
CCc1ccc2[nH]c(=O)c(C(c3nnnn3Cc3ccco3)N3CCC(C)CC3)cc2c1 (centres undefined)	inconclusive: 14.6 µM [falling, partial curve, poor fit]	
Cc1ccc(S(=O)(=O)Nc2c(C)n(C)n(-c3ccccc3)c2=O)cc1C(=O)OC(C)C(=O)c1ccccc1 (centres undefined)	inconclusive: 4.61 µM [falling, full curve, poor fit]	
CC(C)CC(=O)Nc1ccccc1-c1nnn(CC(=O)N2CCOCC2)n1	inconclusive: 29.1 µM [activator, single point]	
COC(=O)c1sc(NC(=S)NC(=O)c2ccccc2F)nc1C	inconclusive: 16.4 µM [activator, partial curve]	
COc1ccccc1N(C)S(=O)(=O)c1ccc(C(=O)N(C)Cc2ccc(OC(F)F)cc2)cc1	inconclusive: 13 µM [falling, partial curve]	
CCOC(=O)c1ccccc1NC(=O)CSc1nc2ncccc2[nH]1		inactive: 1.66%
COCCn1c(C)cc(C(=O)COc2ncnc3ccc(Br)cc23)c1C	inconclusive: 14.6 µM [activator, single point]	
CCN1c2ccccc2-c2nc(SCC(=O)Nc3ccc(C)c(Cl)c3)ncc2S1(=O)=O	inconclusive: 3.66 µM [falling, single point]	
COc1cc(C(=O)NC(=S)Nc2nccs2)cc(OC)c1OC	inconclusive: 1.16 µM [activator, partial curve, poor fit]	
CC(=O)c1cc(C(=O)Nc2cccc(C)c2)c2ccccn12		inactive: 4.21%
O=C(CCl)N1CCN(S(=O)(=O)c2ccc3ccccc3c2)CC1		inactive: 5.44%
Cc1ccc(C)c(N(C)C(=O)C2CCN(S(=O)(=O)c3cccc4nsnc34)CC2)c1	inconclusive: 16.4 µM [falling, partial curve]	
CN(C)S(=O)(=O)c1cc(NC(=O)c2cc(=O)c3ccccc3o2)ccc1Cl	inconclusive: 5.17 µM [falling, partial curve]	
CCOC(=O)c1sc2nc(NC(=O)C3CCCCC3)sc2c1C	inconclusive: 4.11 µM [activator, partial curve, poor fit]	
Cc1noc(-c2ccccc2OCC(=O)Nc2cccc([N+](=O)[O-])c2)n1	inconclusive: 29.1 µM [falling, single point]	
CCOC(=O)C1=C(CC)Nc2ccccc2N/C1=N\S(=O)(=O)c1ccc(C(=O)OCC)cc1	inconclusive: 23.1 µM [activator, single point]	
O=C1c2ccccc2C(=O)N1CCOc1cccc(Br)c1	inconclusive: 29.1 µM [activator, single point]	
Cc1ccc2cc(CN(CC3CCCO3)C(=S)NCc3ccco3)c(=O)[nH]c2c1C (centres undefined)	inconclusive: 11.6 µM [activator, partial curve]	

Some of the entries so far, as a markdown table:

| SMILES | Potency | activity change, negative = inhibition |
| --- | --- | --- |
| COc1ccnc(N2CCN(c3cccc(C(F)(F)F)c3)CC2)c1C#N | inconclusive: 0.517 µM [falling, full curve, poor fit] |  |
| CCc1ccc2[nH]c(=O)c(C(c3nnnn3Cc3ccco3)N3CCC(C)CC3)cc2c1 (centres undefined) | inconclusive: 14.6 µM [falling, partial curve, poor fit] |  |

(more compounds)

SMILES	Potency	activity change, negative = inhibition
Cc1ccc2c(c1)c1c3n2CC(=C2C(=O)OC(C)(C)OC2=O)NC3CCC1 (centres undefined)	inconclusive: 23.1 µM [falling, single point]	
O=C(CS(=O)c1ccccc1[N+](=O)[O-])Oc1ccc(Br)cc1 (centres undefined)		inactive: -20%
Nc1cc(-c2ccc(Cl)cc2)nn1S(=O)(=O)c1ccccc1	inconclusive: 0.92 µM [falling, partial curve, poor fit]	
CS(=O)(=O)N1CCc2cc(S(=O)(=O)N3CCN(Cc4ccc5c(c4)OCO5)CC3)ccc21	inconclusive: 25.9 µM [falling, single point]	
COc1ccc(-c2nc(NC(=O)c3ccc(OCC(=O)N4CCOCC4)c(OC)c3)sc2C)cc1	inconclusive: 16.4 µM [falling, single point]	
COc1ccc(C2/C=C\CN(C(=O)OCc3ccccc3)CC(=O)N2Cc2ccc(F)cc2)cc1 (centres undefined)	inconclusive: 29.1 µM [falling, single point]	
CC(Nc1ccccc1N1CCCCC1)C(=O)N1CCc2ccccc21 (centres undefined)	active: 9.2 µM	
Cc1ccc(Cl)cc1NC(=O)NCc1cccnc1	inconclusive: 4.11 µM [falling, full curve, poor fit]	
CCOC(=O)C1C(=O)C=C(c2ccc(C)cc2)CC1c1ccc([N+](=O)[O-])cc1 (centres undefined)		inactive: 4.89%
COc1ccc(Cn2c(C3CC3)nc3ccc(NC(=O)C4CC4)cc3c2=O)cc1	inconclusive: 1.16 µM [activator, partial curve]	
Cc1ccc(Cl)cc1NC(=O)c1ccc(-c2nc(CSc3ccccc3)c(C)o2)cc1	active: 13 µM	
Cc1ccc(-n2nnnc2Sc2ccc(S(=O)(=O)NCCN(C)C)cc2[N+](=O)[O-])cc1	active: 10.3 µM	
Cc1nc2ccc(-c3nc4ccccc4[nH]3)cc2[nH]1	inconclusive: 0.259 µM [activator, full curve, poor fit]	
CCc1ncc(CN2CCC(C(=O)Nc3cccc(-c4cscn4)c3)CC2)cn1	inconclusive: 13 µM [falling, partial curve]	
Clc1ccccc1-c1nnc(-c2ccc3c(c2)OCO3)o1	inconclusive: 5.17 µM [activator, full curve]	
O=C1C=CC(=O)N1c1cccc2cccnc12		inactive: -1.33%
Cc1ccc(Oc2cc(NC(=O)CCCn3nc([N+](=O)[O-])cc3C)cc([N+](=O)[O-])c2)cc1	inconclusive: 20.6 µM [falling, partial curve]	
CCOC(=O)c1cnc2ccc(F)cc2c1Nc1ccc2c(c1)OCCO2	inconclusive: 29.1 µM [falling, single point]	
CCOC(=O)C1CCN(C(=O)c2cc3cc4ccc(C)cc4nc3o2)CC1	inconclusive: 29.1 µM [activator, single point]	
CCC(CC)c1nn2c(N)c(/C=C3\C=Nc4ccccc43)c(=O)nc2s1	inconclusive: 18.4 µM [falling, single point]	
Cc1ccc2c(CNCCc3ccc(Cl)cc3)c(C(=O)O)n(Cc3ccc(F)cc3)c2c1		inactive: -23%
Cc1ccc(N2CC(C(=O)Nc3ccc(S(=O)(=O)N4CCCC4)cc3)CC2=O)cc1 (centres undefined)	inconclusive: 10.3 µM [falling, single point]	

Reformatted: results already given
COc1ccc(C2/C=C\CN(C(=O)OCc3ccccc3)CC(=O)N2Cc2ccc(F)cc2)cc1 (centres undefined)
  Potency: inconclusive: 29.1 µM [falling, single point]
CC(Nc1ccccc1N1CCCCC1)C(=O)N1CCc2ccccc21 (centres undefined)
  Potency: active: 9.2 µM
Cc1ccc(Cl)cc1NC(=O)NCc1cccnc1
  Potency: inconclusive: 4.11 µM [falling, full curve, poor fit]

The results go on.

SMILES	Potency	activity change, negative = inhibition
CCOc1ccc2[nH]cc(C(=O)NCc3ccc(F)cc3)c(=O)c2c1	inconclusive: 14.6 µM [falling, partial curve, poor fit]	
COCC(=O)N1CCCc2ccccc21	inconclusive: 29.1 µM [activator, single point]	
CC(=O)OCCCNc1cc(Sc2ccc(Cl)cc2)c2nonc2c1[N+](=O)[O-]	inconclusive: 0.0291 µM [falling, full curve, poor fit]	
O=C1OC(Nc2ccc3c(c2)OCO3)c2ccccc21 (centres undefined)	inconclusive: 35.5 µM [activator, single point]	
Cc1ccc(N=Nc2ccc(O)c3ncccc23)cc1	inconclusive: 29.1 µM [falling, single point]	
O=C1/C(=C/Nc2cccc([N+](=O)[O-])c2)CCc2ccccc21	inconclusive: 4.11 µM [activator, partial curve]	
COc1ccccc1NC(=O)c1ccc(Br)c(S(=O)(=O)N2CCCC2)c1	inconclusive: 18.4 µM [falling, single point]	
O=C(O)c1ccc(COc2cccc(CO)c2)cc1	inconclusive: 7.31 µM [activator, partial curve, poor fit]	
CCCNc1nc2c(c(=O)n(C)c(=O)n2C)n1Cc1cccc(C)c1	active: 6.51 µM	
CC1(C)CC(=O)C2=C(C1)N=C1c3ccccc3C(=O)C1C2c1ccc(Cl)cc1 (centres undefined)	active: 25.9 µM	
Cc1nc(N)sc1-c1csc(Nc2ccc(Cl)cn2)n1	inconclusive: 16.4 µM [falling, single point]	
COc1ccc(-c2csc(NCc3ccco3)n2)cc1C	inconclusive: 10.3 µM [activator, partial curve, poor fit]	
CN1C2CCC1CC(NC(=O)c1ccc(Cl)cc1)C2 (centres undefined)		inactive: 6.23%
Clc1ccc2nc(-c3ccccn3)c(Nc3ccc4c(c3)OCO4)n2c1	inconclusive: 23.1 µM [falling, single point]	
CN1/C(=C\C=C2/C(=O)Oc3ccccc3C2=O)C(C)(C)c2ccccc21		inactive: 17.3%
Cc1cccc(NS(=O)(=O)c2ccc(C(=O)N3CCN(c4ccccc4O)CC3)cc2)c1C	inconclusive: 25.9 µM [falling, partial curve]	
CCOc1ccc(-c2ccc(SCC(=O)N3CCOCC3)nn2)cc1	inconclusive: 4.11 µM [activator, partial curve, poor fit]	
CCCCOC(=O)NC1CCc2cc(OC)c(OC)c(OC)c2-c2ccc(SC)c(=O)cc21 (centres undefined)	inconclusive: 0.0046 µM [activator, full curve, poor fit]	
Cc1ccccc1C(=O)OCC(=O)Nc1cccc(S(=O)(=O)NC2=NCCC2)c1	inconclusive: 32.6 µM [falling, single point]	
FC(F)(F)c1ccccc1/C=N/Nc1ccccn1	inconclusive: 29.1 µM [activator, single point]	
